Experimental findings from the supplement of paper PMC10849652 are described below.

By UniProt entry, the sequences of proteins in these tests, tags left out. Where a name states a change or a piece, a line headed by the entry shows the natural chain unless it says otherwise.
UniProt Q17RY0: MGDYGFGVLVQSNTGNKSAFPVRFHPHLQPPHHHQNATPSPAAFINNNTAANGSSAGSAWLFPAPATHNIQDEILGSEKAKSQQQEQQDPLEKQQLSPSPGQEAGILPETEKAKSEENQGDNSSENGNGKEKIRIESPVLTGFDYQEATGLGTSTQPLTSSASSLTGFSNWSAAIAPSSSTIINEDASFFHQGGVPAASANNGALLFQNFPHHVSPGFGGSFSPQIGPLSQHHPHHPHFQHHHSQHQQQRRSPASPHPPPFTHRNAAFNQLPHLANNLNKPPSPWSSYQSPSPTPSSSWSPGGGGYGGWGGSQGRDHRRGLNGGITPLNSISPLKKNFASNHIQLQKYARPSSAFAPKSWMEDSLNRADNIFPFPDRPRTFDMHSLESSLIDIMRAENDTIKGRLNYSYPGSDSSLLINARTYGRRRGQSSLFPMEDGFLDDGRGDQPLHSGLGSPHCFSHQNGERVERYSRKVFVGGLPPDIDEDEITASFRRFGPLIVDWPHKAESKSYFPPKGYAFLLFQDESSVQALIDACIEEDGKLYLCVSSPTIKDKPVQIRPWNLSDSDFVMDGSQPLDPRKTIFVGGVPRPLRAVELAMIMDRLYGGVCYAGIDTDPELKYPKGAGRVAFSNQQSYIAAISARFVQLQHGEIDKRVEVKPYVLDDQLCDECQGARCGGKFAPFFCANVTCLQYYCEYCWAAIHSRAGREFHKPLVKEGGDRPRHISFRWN
UniProt Q9BRF8, whole entry, looked up: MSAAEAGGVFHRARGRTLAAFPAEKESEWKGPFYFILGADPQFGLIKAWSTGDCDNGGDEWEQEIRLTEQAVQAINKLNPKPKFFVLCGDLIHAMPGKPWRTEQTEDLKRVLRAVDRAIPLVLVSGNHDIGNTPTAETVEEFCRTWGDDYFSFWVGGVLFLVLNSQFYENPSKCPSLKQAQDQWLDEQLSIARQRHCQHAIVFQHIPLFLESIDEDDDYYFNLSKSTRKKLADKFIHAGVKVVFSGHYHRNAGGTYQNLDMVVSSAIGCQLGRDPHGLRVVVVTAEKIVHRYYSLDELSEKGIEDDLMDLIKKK
UniProt Q9P2I0: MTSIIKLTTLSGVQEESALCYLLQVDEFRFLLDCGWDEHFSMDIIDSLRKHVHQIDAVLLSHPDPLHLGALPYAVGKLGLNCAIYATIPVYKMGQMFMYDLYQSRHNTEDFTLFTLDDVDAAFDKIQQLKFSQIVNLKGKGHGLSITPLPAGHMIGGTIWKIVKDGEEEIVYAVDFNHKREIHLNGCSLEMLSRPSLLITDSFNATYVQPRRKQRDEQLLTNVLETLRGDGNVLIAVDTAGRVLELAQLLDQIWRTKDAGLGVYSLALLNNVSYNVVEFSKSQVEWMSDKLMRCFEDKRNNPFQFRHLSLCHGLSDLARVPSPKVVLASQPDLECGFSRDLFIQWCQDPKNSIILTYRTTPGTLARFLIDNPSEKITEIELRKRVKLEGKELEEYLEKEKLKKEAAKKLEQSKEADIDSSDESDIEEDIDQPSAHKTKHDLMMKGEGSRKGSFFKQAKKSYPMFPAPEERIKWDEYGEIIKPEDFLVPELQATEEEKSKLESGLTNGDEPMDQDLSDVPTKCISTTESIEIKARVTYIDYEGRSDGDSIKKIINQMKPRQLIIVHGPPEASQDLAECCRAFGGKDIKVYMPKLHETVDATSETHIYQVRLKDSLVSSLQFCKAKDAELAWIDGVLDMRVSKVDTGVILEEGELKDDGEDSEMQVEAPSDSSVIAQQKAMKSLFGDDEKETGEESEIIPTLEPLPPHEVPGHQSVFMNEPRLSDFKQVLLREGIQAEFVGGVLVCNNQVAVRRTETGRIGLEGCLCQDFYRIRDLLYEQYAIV
UniProt Q6UUV9: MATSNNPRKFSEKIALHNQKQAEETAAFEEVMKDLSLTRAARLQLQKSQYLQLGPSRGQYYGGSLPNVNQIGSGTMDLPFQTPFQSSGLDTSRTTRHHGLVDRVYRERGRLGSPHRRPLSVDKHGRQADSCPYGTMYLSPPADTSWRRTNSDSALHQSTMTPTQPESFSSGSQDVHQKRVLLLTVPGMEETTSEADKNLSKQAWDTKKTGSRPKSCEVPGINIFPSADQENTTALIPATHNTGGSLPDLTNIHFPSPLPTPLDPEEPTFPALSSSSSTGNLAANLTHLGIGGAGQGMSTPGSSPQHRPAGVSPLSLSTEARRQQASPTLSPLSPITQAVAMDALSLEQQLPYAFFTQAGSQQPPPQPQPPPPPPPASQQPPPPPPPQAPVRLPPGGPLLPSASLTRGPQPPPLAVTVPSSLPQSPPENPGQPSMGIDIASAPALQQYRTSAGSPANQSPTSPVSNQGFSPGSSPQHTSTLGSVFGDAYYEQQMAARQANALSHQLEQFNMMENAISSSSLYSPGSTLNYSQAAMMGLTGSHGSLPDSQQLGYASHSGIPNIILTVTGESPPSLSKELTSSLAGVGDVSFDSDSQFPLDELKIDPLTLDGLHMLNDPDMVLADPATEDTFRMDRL
UniProt Q7Z5Q1: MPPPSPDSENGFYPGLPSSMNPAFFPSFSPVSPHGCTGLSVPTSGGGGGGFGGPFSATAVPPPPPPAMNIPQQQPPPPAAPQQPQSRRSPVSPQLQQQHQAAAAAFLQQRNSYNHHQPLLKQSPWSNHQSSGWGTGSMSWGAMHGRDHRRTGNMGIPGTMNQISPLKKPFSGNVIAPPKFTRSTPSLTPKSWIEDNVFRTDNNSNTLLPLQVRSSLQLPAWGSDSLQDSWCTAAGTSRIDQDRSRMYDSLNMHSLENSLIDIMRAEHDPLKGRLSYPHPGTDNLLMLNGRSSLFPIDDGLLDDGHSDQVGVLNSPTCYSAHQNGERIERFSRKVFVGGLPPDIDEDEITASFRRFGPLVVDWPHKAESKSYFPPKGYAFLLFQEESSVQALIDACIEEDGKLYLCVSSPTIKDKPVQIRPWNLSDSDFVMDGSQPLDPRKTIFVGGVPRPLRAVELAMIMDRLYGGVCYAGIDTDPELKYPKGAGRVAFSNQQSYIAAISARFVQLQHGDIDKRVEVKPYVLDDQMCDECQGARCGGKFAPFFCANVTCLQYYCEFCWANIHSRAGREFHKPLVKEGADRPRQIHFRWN
UniProt Q16630, whole entry, looked up: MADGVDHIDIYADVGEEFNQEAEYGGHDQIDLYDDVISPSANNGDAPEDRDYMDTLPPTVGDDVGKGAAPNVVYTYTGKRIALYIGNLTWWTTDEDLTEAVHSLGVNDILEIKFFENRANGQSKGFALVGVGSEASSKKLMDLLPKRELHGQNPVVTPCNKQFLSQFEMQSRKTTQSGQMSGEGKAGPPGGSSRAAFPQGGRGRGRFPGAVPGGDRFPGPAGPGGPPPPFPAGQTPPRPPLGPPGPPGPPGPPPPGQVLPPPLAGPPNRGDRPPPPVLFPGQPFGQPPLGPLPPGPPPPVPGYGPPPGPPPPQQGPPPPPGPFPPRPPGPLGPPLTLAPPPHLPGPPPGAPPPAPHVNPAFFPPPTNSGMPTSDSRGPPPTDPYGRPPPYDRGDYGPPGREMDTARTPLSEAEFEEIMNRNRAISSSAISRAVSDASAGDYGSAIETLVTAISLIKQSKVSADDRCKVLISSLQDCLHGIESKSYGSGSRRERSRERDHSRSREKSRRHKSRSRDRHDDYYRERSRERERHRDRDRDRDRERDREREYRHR
UniProt Q8N684: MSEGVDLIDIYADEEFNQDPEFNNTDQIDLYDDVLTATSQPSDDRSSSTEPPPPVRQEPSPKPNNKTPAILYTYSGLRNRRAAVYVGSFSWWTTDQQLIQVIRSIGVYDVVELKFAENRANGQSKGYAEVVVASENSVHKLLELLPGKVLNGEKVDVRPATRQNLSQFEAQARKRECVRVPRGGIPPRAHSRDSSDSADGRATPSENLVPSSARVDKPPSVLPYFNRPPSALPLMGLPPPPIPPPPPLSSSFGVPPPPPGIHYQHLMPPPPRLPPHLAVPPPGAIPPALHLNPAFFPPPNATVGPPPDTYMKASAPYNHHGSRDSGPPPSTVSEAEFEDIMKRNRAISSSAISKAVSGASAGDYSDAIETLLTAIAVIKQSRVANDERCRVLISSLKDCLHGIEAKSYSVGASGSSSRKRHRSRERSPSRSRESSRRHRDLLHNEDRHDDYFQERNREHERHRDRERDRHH
UniProt Q14061: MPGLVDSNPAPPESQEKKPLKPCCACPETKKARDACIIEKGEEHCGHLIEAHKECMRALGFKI
UniProt P78368: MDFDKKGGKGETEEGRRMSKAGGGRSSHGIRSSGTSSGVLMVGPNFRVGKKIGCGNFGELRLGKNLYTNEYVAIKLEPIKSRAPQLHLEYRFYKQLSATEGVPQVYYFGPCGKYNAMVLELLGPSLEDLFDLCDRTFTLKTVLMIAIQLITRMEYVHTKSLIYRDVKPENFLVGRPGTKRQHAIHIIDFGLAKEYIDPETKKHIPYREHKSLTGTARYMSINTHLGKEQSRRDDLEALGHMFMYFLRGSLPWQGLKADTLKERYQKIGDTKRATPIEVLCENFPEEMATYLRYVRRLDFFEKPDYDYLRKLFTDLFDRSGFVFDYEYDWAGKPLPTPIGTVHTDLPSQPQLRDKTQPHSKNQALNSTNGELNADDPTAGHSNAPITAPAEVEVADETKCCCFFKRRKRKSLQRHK
UniProt P52943: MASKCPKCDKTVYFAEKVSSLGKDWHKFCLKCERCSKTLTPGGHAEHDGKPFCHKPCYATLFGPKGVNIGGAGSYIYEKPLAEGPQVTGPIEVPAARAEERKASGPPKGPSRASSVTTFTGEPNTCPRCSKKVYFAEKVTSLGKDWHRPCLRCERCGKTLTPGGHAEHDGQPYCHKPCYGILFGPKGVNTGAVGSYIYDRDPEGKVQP
UniProt Q14194, whole entry, looked up: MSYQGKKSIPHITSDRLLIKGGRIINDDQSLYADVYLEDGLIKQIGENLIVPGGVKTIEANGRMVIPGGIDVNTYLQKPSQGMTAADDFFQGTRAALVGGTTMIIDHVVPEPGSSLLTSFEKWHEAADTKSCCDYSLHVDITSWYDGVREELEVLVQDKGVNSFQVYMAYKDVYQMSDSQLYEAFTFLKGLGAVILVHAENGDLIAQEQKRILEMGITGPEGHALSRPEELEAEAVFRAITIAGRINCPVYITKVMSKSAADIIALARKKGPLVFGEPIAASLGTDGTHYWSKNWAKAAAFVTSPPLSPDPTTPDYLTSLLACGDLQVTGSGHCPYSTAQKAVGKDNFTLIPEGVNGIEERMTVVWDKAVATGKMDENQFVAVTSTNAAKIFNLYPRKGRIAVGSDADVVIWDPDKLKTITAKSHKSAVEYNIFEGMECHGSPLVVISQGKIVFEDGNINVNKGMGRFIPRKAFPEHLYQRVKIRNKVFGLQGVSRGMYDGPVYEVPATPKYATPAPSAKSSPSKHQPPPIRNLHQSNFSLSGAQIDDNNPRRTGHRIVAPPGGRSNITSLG
UniProt Q9UKF6: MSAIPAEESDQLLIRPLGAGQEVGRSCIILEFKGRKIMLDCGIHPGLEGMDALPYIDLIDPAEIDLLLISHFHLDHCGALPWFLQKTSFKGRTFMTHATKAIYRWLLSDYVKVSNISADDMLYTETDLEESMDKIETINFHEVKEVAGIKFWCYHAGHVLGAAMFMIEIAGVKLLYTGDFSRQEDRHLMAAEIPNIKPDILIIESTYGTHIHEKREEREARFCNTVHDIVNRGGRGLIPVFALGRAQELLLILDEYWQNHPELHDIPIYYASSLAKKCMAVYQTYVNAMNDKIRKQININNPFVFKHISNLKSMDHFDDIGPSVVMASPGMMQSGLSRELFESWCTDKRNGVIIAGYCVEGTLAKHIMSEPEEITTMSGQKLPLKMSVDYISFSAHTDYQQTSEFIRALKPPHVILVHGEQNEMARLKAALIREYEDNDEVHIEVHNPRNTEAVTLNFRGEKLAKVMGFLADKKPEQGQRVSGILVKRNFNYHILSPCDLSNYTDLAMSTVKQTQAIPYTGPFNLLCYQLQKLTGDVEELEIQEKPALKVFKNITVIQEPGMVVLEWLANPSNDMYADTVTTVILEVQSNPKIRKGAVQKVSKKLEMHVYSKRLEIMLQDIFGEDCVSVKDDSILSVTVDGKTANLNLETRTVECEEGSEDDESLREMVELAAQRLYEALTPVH
UniProt Q8IUI8: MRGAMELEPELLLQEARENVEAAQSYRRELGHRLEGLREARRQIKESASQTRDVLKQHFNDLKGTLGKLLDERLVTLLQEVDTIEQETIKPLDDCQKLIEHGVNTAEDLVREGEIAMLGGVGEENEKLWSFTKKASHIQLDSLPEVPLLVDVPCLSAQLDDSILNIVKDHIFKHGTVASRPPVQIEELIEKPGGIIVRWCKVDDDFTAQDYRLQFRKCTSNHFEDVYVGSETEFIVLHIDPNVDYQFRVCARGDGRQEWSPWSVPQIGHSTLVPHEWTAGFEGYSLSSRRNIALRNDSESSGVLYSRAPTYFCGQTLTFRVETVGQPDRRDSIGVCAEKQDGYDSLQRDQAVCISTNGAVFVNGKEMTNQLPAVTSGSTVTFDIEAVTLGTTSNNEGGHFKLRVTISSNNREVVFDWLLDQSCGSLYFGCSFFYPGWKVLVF
UniProt P15954, whole entry, looked up: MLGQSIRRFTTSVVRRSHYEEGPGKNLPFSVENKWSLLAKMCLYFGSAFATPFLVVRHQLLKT

Test in all cases: log2 fold change, soluble protein after heating vs DMSO (PISA); higher = thermal stabilisation; K562 cells, 10 uM, 30 min; active = over 0.2 and 3.5 SD of the protein, either way, in both replicates (recomputed)
Compound in test [1]: NC(=O)Nc1cc(-c2cccc(F)c2)sc1C(=O)N[C@H]1CCCNC1
The method in brief:
(§1)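 Thermal stability values are relative to control samples and come from duplicates. They are expressed as log2 fold changes. For measurement, K562 cells (2×10^6 cells/mL) received 10 μM compound for 30 min, and aliquots were heated for 3 min over 48°C-58°C, pooled, and extracted at 4°C in PBS with 0.5% NP-40. Soluble protein, the supernatant after 21,000xg for 90 min, was quantified by TMTpro 16plex LC-MS/MS with equalised channel sums.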

Compound in test [2]: NC(=O)c1cnc(N[C@@H]2CCCC[C@@H]2N)nc1Nc1cccc(-n2nccn2)c1
Put shortly:
as §1

Compound in test [3]: NC1(c2ccc(-c3nc4ccn5c(=O)[nH]nc5c4cc3-c3ccccc3)cc2)CCC1
Put shortly:
as §1

Compound in test [4]: NCC(=O)Nc1ccc(-n2nc(C(F)(F)F)cc2-c2ccc3c(ccc4ccccc43)c2)cc1
Put shortly: as §1

Compound in test [5]: Nc1ccccc1NC(=O)c1ccc(CNC(=O)OCc2cccnc2)cc1 [entinostat]
Put shortly: as §1

Compound in test [6]: O=C(CCCCCCC(=O)Nc1ccccc1)NO [vorinostat]
The method in brief: as §1

Compound in test [7]: O=C(CCCCCCNC(=O)c1cnc(N(c2ccccc2)c2ccccc2Cl)nc1)NO [citarinostat]
Put shortly: as §1

Compound in test [8]: O=C(O)c1ccc2c(c1)nc(Nc1cccc(Cl)c1)c1ccncc12 [silmitasertib]
Put shortly:
as §1

Compound in test [9]: c1cc(OCCN2CCCCC2)cc(-c2n[nH]c3ccc(-c4nnc[nH]4)cc23)c1
The method in brief:
as §1

Compound in test [10]: O=C1NC(=O)C(c2cnc3ccccn23)=C1c1cn2c3c(cc(F)cc13)CN(C(=O)N1CCCCC1)CC2
The method in brief:
as §1

The list shows a part of the results.

For the target CPEB4 (UniProt Q17RY0), the log2 fold change is inactive: -0.032 in [1]; inactive: -0.08 in test [2]; inactive: 0.064 in test [3]; inactive: -0.132 in test [4]; inactive: 0.024 in test [5]; inactive: -0.013 in test [6]. The log2 fold change in test [7] was inactive: 0.054; in test [8], inactive: 0; in test [9], inactive: -0.062.

On to CPPED1 (UniProt Q9BRF8), for which the log2 fold change in test [1] is inactive: 0.003; in test [2], inactive: 0.003; in test [3], inactive: -0.032; in [4], inactive: -0.015; in [5] it was inactive: -0.006; in test [6] it was inactive: 0.006. Moreover, the log2 fold change in test [7] is inactive: 0.027; in test [8], inactive: 0.005; in [10], inactive: 0.008; in [9] it was inactive: -0.011.

Consider CPSF2 (UniProt Q9P2I0), for which the log2 fold change in test [1] was inactive: 0.025; in test [2], inactive: 0.04; in test [3] it was inactive: -0.051; in test [4], inactive: -0.083; in test [5], inactive: 0.013; in test [6], inactive: 0.049. The log2 fold change is inactive: -0.003 in [7], inactive: 0.269 in test [8], inactive: 0.063 in test [10] and inactive: -0.043 in test [9].

Regarding CRTC1 isoform 2 (UniProt Q6UUV9), the log2 fold change was inactive: -0.132 in [1]; inactive: -0.151 in [2]; inactive: 0.01 in test [4]; inactive: 0.044 in test [5]; inactive: 0.012 in test [6]; inactive: -0.371 in test [10].

Take CPEB2 isoform 9 (UniProt Q7Z5Q1): the log2 fold change is inactive: 0.011 in [1]; inactive: -0.059 in test [2]; inactive: 0.367 in test [4]; inactive: -0.227 in test [5]; inactive: -0.233 in [10].

With CPSF6 isoform 2 (UniProt Q16630), the log2 fold change in [1] was inactive: -0.027; in [2], inactive: -0.037; in test [3], inactive: -0.01; in [4], inactive: 0.029; in test [5], inactive: -0.008; in test [6] it was inactive: -0.007. The log2 fold change is inactive: 0.004 in [7], active: -0.225 in test [8], inactive: -0.003 in test [10] and inactive: -0.179 in test [9].

For CPSF7 isoform 3 (UniProt Q8N684), the log2 fold change in [1] is inactive: -0.063; in test [2] it was inactive: 0.025; in test [3] it was inactive: 0.027; in [4] it was inactive: 0.013; in [5], inactive: -0.023; in test [6], inactive: 0.01. Further, the log2 fold change in test [7] was inactive: 0.001; in test [8], inactive: -0.069; in test [10], inactive: 0.054; in [9], inactive: -0.035.

Regarding COX17 (UniProt Q14061), the log2 fold change was inactive: -0.002 in test [1]; inactive: 0.017 in [2]; inactive: -0.088 in [3]; inactive: 0.052 in test [4]; inactive: 0.048 in [5]; inactive: -0.077 in [6]. The log2 fold change is inactive: 0.119 in test [8] and inactive: -0.141 in test [10].

Regarding CSNK1G2 (UniProt P78368), the log2 fold change was inactive: 0.057 in [1]; inactive: -0.089 in test [2]; inactive: -0.11 in test [3]; inactive: -0.136 in test [5]; inactive: -0.034 in test [6]; inactive: -0.09 in [7]. The log2 fold change in test [8] is inactive: 0.053; in test [10], inactive: 0; in test [9], inactive: -0.09.

As to CRIP2 isoform 2 (UniProt P52943), the log2 fold change in test [1] is inactive: -0.049; in test [2], inactive: -0.161; in [4], inactive: -0.022; in test [5] it was inactive: 0.031; in [7], inactive: 0.009; in [10], inactive: 0.046. Moreover, the log2 fold change in test [9] is inactive: -0.001.

For CRMP1 isoform 2 (UniProt Q14194), the log2 fold change in test [1] is inactive: -0.121; in test [2], inactive: 0; in test [4], inactive: -0.099; in test [5] it was inactive: -0.055; in test [6], inactive: 0.193.

Consider CPSF3 (UniProt Q9UKF6), for which the log2 fold change was inactive: 0.001 in [1]; inactive: -0.05 in [2]; inactive: -0.032 in test [3]; inactive: -0.058 in [4]; inactive: -0.002 in test [5]; inactive: 0.016 in test [6]. In addition, the log2 fold change in test [7] was inactive: 0.026; in [8] it was inactive: 0.129; in test [10], inactive: -0.006; in [9] it was inactive: -0.075.

In the case of CSNK2A2 (UniProt P19784), the log2 fold change in test [1] is inactive: -0.069; in [2], inactive: 0.008; in test [3], inactive: -0.052; in test [4], inactive: 0.069; in [5], inactive: -0.015; in test [6], inactive: 0.086. For the same target, the log2 fold change in test [7] was inactive: 0.011; in test [8] it was active: 0.873; in [10], inactive: -0.076; in test [9], inactive: 0.022.

CRLF3 (UniProt Q8IUI8): the log2 fold change in [1] was inactive: 0.016; in test [2], inactive: -0.233; in [3], inactive: -0.165; in test [4], inactive: -0.105; in test [5] it was inactive: 0.025; in test [6], inactive: -0.023. For the same target, the log2 fold change was inactive: 0.047 in test [7], inactive: 0.104 in test [8], inactive: -0.003 in test [10] and inactive: -0.057 in [9].

In the case of COX7C (UniProt P15954), the log2 fold change in [1] was inactive: 0.009; in [2], inactive: 0.048; in test [3], inactive: -0.013; in test [4], inactive: 0.046; in test [5], inactive: 0.014; in test [6] it was inactive: -0.017. The log2 fold change was inactive: 0.079 in test [7], inactive: -0.003 in test [8], inactive: -0.089 in [10] and inactive: -0.059 in [9].
